{"source": "PubChem BioAssay AID1259254, NCATS – 2017", "purpose": "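Finding genes that stop cells copying their DNA twice in one cycle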 (primary screen)", "cell system": "human HCT116 colorectal cancer cells", "reagents": "single siRNA against human genes", "duration": "3 days", "read-out": "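Imaged Hoechst DNA stain sorts each cell into a cycle phase by DNA amount; per plate, G2 fraction set to 0% for non-targeting and 100% for GMNN siRNA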", "scale": "G2 robust z-score: higher = more G2 cells, more excess DNA replication", "hit rule": "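An siRNA counts as active if its G2 robust z-score lies at least 5 MADs above the screen median; here such calls match roughly 38% of GMNN control or more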", "note": "This is an unselected part of about 59,000 deposited reagents. In the full data, about 1,550 (2.6%) are marked active. 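G2 share is only a proxy for re-replication; each gene was hit by three separate siRNAs, and active genes were retested.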 Entries without a mark were called inactive. The numbers tell different reagents against one gene apart. Not all columns of the deposit are shown. Not stated in the record: the amount of reagent."}
{"gene symbol": "KLK12 (kallikrein related peptidase 12)", "reagent no.": 1, "G2 robust z-score": -0.674}
{"gene symbol": "KLK12 (kallikrein related peptidase 12)", "reagent no.": 2, "G2 robust z-score": -0.159}
{"gene symbol": "KLK12 (kallikrein related peptidase 12)", "reagent no.": 3, "G2 robust z-score": 4.72}
{"gene symbol": "TICAM1 (TIR domain containing adaptor molecule 1)", "reagent no.": 1, "G2 robust z-score": -0.827}
{"gene symbol": "TICAM1 (TIR domain containing adaptor molecule 1)", "reagent no.": 2, "G2 robust z-score": -0.453}
{"gene symbol": "TICAM1 (TIR domain containing adaptor molecule 1)", "reagent no.": 3, "G2 robust z-score": 0.323}
{"gene symbol": "C1orf198 (chromosome 1 open reading frame 198)", "reagent no.": 1, "G2 robust z-score": -0.977}
{"gene symbol": "C1orf198 (chromosome 1 open reading frame 198)", "reagent no.": 2, "G2 robust z-score": -0.275}
{"gene symbol": "C1orf198 (chromosome 1 open reading frame 198)", "reagent no.": 3, "G2 robust z-score": -0.602}
{"gene symbol": "GRAMD1B (GRAM domain containing 1B)", "reagent no.": 1, "G2 robust z-score": 0.0523}
{"gene symbol": "GRAMD1B (GRAM domain containing 1B)", "reagent no.": 2, "G2 robust z-score": -0.928}
{"gene symbol": "GRAMD1B (GRAM domain containing 1B)", "reagent no.": 3, "G2 robust z-score": 2.43}
{"gene symbol": "MPO (myeloperoxidase)", "reagent no.": 1, "G2 robust z-score": -0.307}
{"gene symbol": "MPO (myeloperoxidase)", "reagent no.": 2, "G2 robust z-score": -0.715}
{"gene symbol": "MPO (myeloperoxidase)", "reagent no.": 3, "G2 robust z-score": 1.93}
{"gene symbol": "MME (membrane metalloendopeptidase)", "reagent no.": 1, "G2 robust z-score": -0.729}
{"gene symbol": "MME (membrane metalloendopeptidase)", "reagent no.": 2, "G2 robust z-score": -0.286}
{"gene symbol": "MME (membrane metalloendopeptidase)", "reagent no.": 3, "G2 robust z-score": 0.066}
